Assay [1] deals with T1, CD100 (mouse (endogenous in thymic TNC complexes)) (UniProt O09126).
T1 sequence: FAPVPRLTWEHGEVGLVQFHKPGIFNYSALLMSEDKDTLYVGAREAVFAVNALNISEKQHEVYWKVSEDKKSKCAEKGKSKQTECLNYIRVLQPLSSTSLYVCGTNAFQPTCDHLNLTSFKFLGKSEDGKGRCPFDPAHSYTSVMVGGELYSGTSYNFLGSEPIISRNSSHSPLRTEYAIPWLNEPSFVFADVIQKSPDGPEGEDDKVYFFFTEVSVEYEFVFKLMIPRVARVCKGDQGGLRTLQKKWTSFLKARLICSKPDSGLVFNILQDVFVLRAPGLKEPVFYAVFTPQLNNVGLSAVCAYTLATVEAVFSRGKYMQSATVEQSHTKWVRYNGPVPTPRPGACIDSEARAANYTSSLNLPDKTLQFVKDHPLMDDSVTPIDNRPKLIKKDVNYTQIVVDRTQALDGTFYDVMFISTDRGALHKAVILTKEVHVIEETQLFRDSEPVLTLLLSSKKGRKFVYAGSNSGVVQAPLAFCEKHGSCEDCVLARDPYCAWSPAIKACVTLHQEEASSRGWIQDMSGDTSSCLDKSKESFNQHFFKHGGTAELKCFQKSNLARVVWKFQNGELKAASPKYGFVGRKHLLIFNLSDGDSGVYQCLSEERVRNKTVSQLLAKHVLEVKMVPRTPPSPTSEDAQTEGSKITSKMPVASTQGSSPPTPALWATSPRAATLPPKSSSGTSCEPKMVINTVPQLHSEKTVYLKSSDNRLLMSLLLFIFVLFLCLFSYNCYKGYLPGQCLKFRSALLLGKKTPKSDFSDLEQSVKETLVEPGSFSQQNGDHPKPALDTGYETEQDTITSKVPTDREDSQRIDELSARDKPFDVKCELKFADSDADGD
As to the kind of experiment: co-IP; TNC complexes of AKO (adiponectin knockout) mice; immunoprecipitation with a polyclonal antibody to CD100 amino acids 812-862, Western blot for galectin-3. (A western blot detects proteins with antibodies after separation by electrophoresis.)

Amino acid sequences for entries named in this document (tags omitted).
UniProt P16110: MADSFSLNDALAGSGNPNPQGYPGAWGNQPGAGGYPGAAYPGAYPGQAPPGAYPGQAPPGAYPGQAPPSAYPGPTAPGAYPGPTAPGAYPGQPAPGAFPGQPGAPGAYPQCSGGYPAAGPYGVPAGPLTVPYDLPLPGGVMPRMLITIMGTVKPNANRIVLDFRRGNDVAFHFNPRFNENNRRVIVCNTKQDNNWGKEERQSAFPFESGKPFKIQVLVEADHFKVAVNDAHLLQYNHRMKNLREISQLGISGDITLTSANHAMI

The target of assay [2] is T1, CD100 (mouse (endogenous in thymic TNC complexes)). As to the kind of experiment: co-IP; TNC complexes of WT mice; immunoprecipitation with a polyclonal antibody to CD100 amino acids 502-636, Western blot for adiponectin.

These are yes or no findings as the source states them, for the method shown. Binding seen in cells or lysates may run through a third protein. Some binding calls cover weakened binding; strength is not graded here.

For galectin-3 (from UniProt P16110 1-264), in assay [1], the binding result is “binds”.

B1: Adiponectin (natural protein, mouse (endogenous in thymus), UniProt Q60994 18-247, looked up)
chain: EDDVTTTEELAPALVPPPKGTCAGWMAGIPGHPGHNGTPGRDGRDGTPGEKGEKGDAGLLGPKGETGDVGMTGAEGPRGFPGTPGRKGEPGEAAYVYRSAFSVGLETRVTVPNVPIRFTKIFYNQQNHYDGSTGKFYCNIPGLYYFSYHITVYMKDVKVSLFKKDKAVLFTYDQYQEKNVDQASGSVLLHLEVGDQVWLQVYGDGDHNGLYADNVNDSTFTGFLLYHDTN
notes: adiponectin, mouse, endogenous protein of thymus and thymic nurse cell (TNC) complexes; found as trimer, hexamer and HMW oligomers; Endogenous secreted glycoprotein; detected with a polyclonal antibody against murine adiponectin; also called Adn; ADIPOQ; source: endogenous, thymus tissue and TNC complexes of wild-type mice, in lysate
Consider B1, for which the binding entry in assay [2] is recorded as “binds”.

The record behind these values is PMC7966800, “Adiponectin-expressing Treg facilitate T lymphocyte development in thymic nurse cell complexes” (Communications Biology, 2021).
